Data: PubChem BioAssay AID493014 (National Center for Advancing Translational Sciences (NCATS), 2011)
“And” between values parts separate entries of the source, which are not always exact repeats. Equal values may be shown once. Some of the results follow. These are further read-outs of the screen, such as a control signal, another cell line or another target. No call is given for them. Most of these compounds were active or inconclusive in the main read-out, so they are no random draw. Words in brackets tell the shape of the fitted curve; partial curves, single points and poor fits give uncertain potencies.

Assay: qHTS Assay to Find Inhibitors of Chronic Active B-Cell Receptor Signaling
Details: ABC-DLBCL IkBa-CBG/CBR reporter, luminescence ratio (green luciferase fused to IkBa over red control in TMD8 lymphoma cells), 4 h
Procedure, shortened: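 Concentration-response series (up to 46 uM) were applied to TMD8 dual-reporter cells for 4 h at 37C with doxycycline. Green/red ratio, after filter-overlap correction, defined %Activity; red signal alone was normalised to basal cells and zero luminescence.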

[1] = measured here: CBR red luminescence, cell number
[2] = measured here: IkBa-CBG green luminescence

SMILES	AC50 [1]	AC50 [2]
CCCOc1cccc(C2C(C(=O)c3ccc(C)o3)=C(O)C(=O)N2c2nc(C)c(C(C)=O)s2)c1 (stereo not drawn)	10 µM [falling, partial curve, poor fit]	
O=C(O)c1ccccc1SCC(=O)N1CCCCC1	4.47 µM [rising, full curve, poor fit]	
O=C(c1ccco1)N(CC1CCCO1)c1nc(-c2ccccc2)cs1 (stereo not drawn)	10 µM [rising, partial curve, poor fit]	
CCOC(=O)c1c(CS(=O)(=O)c2ccccc2)n(C)c2cc(Br)c(O)cc12	12.6 µM [falling, single point]	
CC(C)n1cnc2c(NCc3ccccc3)cc(N[C@@H](CO)Cc3ccccc3)cc21	20.6 µM [falling, single point]	
O=[N+]([O-])c1ccc(Cl)cc1CNc1ccc(F)c(F)c1	23.1 µM [rising, partial curve]	
Cc1nc2c(-c3ccc(Cl)cc3)cnn2c(N)c1-c1ccc(F)cc1	1.58 µM [rising, partial curve, poor fit]	
CN(C)/C=N/c1ncc(C(=O)c2ccccc2)s1	8.2 µM [falling, partial curve, poor fit]	
O=C(c1sccc1Br)N1CCN(Cc2ccc3c(c2)OCO3)CC1	2 µM [rising, partial curve]	
COc1cc(/C=C/C(=O)OCC(=O)Nc2ccc(S(=O)(=O)N3CCCC3)cc2)ccc1O	2.59 µM [falling, partial curve, poor fit]	
CN(C)CCNC(=O)c1cc2sc3ccccc3c2s1	28.2 µM [falling, single point]	
N/C(=N\OC(=O)c1ccc([N+](=O)[O-])cc1)c1ccccn1	2.51 µM [falling, full curve]	
CCCn1c(C)cc(/C=C(\C#N)C(=O)OCC(=O)Nc2cccc(S(N)(=O)=O)c2)c1C	29.1 µM [falling, single point]	
Cc1ccc(Nc2nc(-c3ccccc3)cs2)nc1	0.0794 µM [falling, full curve]	
CC1CCCCN1C(=O)c1cc(Cl)ccc1[N+](=O)[O-] (stereo not drawn)	4.61 µM [falling, partial curve, poor fit]	
CCCc1noc(-c2ccc(-c3ccccc3)cc2)n1	35.5 µM [rising, single point]	

2 entries drawn at random from the list so far:
SMILES	AC50 [1]	AC50 [2]
CCCn1c(C)cc(/C=C(\C#N)C(=O)OCC(=O)Nc2cccc(S(N)(=O)=O)c2)c1C	29.1 µM [falling, single point]	
CCCOc1cccc(C2C(C(=O)c3ccc(C)o3)=C(O)C(=O)N2c2nc(C)c(C(C)=O)s2)c1 (stereo not drawn)	10 µM [falling, partial curve, poor fit]	

More structures follow:

SMILES	AC50 [1]	AC50 [2]
Cc1cc(C)nc(NC(=O)/C=C/c2ccccc2Cl)c1	18.4 µM [falling, partial curve]	
COc1cccc(C2(O)CCN(CC(=O)NCC3CC3)CC2)c1	35.5 µM [rising, partial curve, poor fit]	
CS(=O)(=O)c1ncc(Cl)c(C(=O)Nc2ccc(OC(F)F)cc2)n1	10 µM [falling, partial curve, poor fit]	15.8 µM [rising, partial curve, poor fit]
O=C(Nc1nccs1)c1ccc2c(=O)n3c(nc2c1)CCCCC3	18.4 µM [falling, partial curve, poor fit]	18.4 µM [rising, partial curve, poor fit]
O=C(Nc1ccc(F)cc1F)c1csc(-c2ccncc2)n1	35.5 µM [falling, single point]	
COc1ccc(NC(=O)COC(=O)CCc2nc3ccccc3c(=O)[nH]2)c(OC)c1	0.58 µM [rising, partial curve, poor fit]	
Cc1cc(C(=O)CSc2nc3ccccc3n2C)c(C)n1C	8.2 µM [falling, partial curve, poor fit]	
N#C/C(=C\c1ccc(OCC(N)=O)cc1)C(=O)NC1CC1	2.24 µM [falling, partial curve, poor fit]	
O=C(Nc1ccccc1)C1=C[C@H](C2CCCCC2)C[C@H](OCc2ccc(CO)cc2)O1	35.5 µM [falling, single point]	
CCNC(=O)COc1ccc(/C=C2\COc3ccccc3C2=O)cc1OC	7.94 µM [falling, partial curve]	
Cc1c(C#N)c2ncn(Cc3ccccc3)c(=O)c2n1-c1ccccc1	8.91 µM [rising, single point]	
O=C(Nc1cccnc1)c1ccccc1-c1ccccc1	0.562 µM [rising, full curve, poor fit]	
CSC(=O)CC(=O)NC(=O)c1ccccc1	16.4 µM [falling, single point]	
c1csc(CNc2ncnc3ccc(-c4ccc5c(c4)OCCO5)cc23)c1	29.1 µM [falling, single point] and 23.1 µM [falling, single point]	
O=C(O)CCCc1nc2ccccc2s1	0.58 µM [rising, full curve, poor fit]	
